{"source": "patent US20080318892A1", "about": "“METHODS AND FORMULATIONS FOR PROTECTING CELLS, AND FOR TREATING DISEASES AND CONDITIONS BY OPTIMIZING THE INTRACELLULAR CONCENTRATION OF NAD” (priority 2007, published 2008)", "test_system": "HITC6 SMC's", "experiment": "SMC health and survival in low serum (1% FBS) after PRPP, phase contrast microscopy", "format": "cell-based, human", "details": "M199 1% FBS", "note": "For at least one compound, name, drawing or mass did not settle the structure.", "data": [{"smiles": "O=P(O)(O)OC[C@H]1OC(OP(=O)(O)OP(=O)(O)O)[C@H](O)[C@@H]1O", "note": "(some centres unmarked) [PRPP, 5-phosphoribosyl-pyrophosphate]", "values": [{"measurement": "health of smooth muscle cells compared to control cells", "setting": "250 uM PRPP", "value": "increases the health"}, {"measurement": "health of smooth muscle cells compared to control cells", "setting": "500 uM PRPP, 24 hours", "value": "increases the health"}]}]}
